No constants are given. Whether binding was seen depends on the method and setting.

Amino acid sequences for entries named in this document (tags omitted). A change or cut given only in a name is not applied to a line headed by its entry.
UniProt Q15746: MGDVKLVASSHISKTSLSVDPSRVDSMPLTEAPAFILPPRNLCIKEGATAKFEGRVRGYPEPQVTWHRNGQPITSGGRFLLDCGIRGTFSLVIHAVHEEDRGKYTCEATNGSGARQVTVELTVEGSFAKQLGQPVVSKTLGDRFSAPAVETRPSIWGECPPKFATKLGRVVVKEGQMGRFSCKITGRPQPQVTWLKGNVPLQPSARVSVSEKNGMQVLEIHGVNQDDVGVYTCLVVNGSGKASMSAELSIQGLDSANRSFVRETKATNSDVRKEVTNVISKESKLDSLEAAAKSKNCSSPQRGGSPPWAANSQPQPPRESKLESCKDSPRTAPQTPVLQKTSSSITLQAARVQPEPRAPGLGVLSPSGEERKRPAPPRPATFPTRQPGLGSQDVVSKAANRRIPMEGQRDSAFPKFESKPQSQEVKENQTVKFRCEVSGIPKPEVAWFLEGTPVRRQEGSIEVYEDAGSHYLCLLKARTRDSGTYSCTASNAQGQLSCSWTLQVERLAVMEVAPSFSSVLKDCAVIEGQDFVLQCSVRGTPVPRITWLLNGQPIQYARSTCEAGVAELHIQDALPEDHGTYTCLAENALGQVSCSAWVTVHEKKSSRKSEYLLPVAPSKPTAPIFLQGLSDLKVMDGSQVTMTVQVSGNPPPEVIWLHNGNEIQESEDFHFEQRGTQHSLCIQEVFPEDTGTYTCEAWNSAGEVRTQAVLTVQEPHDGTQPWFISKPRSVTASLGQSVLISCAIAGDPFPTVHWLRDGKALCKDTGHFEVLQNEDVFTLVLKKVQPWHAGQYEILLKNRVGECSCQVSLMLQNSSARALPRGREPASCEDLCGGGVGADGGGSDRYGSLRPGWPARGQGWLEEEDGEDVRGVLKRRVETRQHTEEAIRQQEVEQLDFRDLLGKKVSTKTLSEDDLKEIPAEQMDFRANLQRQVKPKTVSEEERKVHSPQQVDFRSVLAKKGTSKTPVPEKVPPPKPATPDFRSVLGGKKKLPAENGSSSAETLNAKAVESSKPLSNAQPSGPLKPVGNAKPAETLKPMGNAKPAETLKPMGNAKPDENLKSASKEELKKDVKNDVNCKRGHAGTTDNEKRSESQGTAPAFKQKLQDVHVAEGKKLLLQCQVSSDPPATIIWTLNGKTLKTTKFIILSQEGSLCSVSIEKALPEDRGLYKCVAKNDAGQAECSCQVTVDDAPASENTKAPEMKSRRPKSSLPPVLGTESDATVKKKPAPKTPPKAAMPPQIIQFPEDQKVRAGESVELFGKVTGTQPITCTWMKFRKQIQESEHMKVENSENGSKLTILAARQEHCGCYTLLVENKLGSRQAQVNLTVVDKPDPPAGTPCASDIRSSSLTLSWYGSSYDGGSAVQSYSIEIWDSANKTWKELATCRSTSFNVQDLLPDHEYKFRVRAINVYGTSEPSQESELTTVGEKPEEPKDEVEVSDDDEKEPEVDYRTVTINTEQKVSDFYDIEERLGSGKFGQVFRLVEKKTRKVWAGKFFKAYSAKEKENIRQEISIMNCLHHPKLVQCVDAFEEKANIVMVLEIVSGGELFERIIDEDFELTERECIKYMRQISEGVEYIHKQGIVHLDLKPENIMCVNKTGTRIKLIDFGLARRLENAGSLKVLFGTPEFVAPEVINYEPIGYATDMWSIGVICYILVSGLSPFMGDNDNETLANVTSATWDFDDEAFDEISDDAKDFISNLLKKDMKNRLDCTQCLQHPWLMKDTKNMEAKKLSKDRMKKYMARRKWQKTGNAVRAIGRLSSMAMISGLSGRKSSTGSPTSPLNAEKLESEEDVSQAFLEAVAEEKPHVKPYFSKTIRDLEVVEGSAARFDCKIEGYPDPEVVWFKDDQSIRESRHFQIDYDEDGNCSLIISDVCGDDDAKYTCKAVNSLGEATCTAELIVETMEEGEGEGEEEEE

Our source for the binding values is patent publication US20050261196A1 (UNIVERSITY OF CHICAGO, published 2005).

The target of the experiment is inactive MLCK, aldehyde-fixed (UniProt Q15746). Briefly: binding of PIK probe to aldehyde-fixed MLCK, streptavidin fluorescence.

As for RKKYKYRRK [PIK (SEQ ID NO: 12)], the binding result was “no binding”.
